These results are taken from article PMC13128448.

Chains of the proteins cited; added tags and fusions are not shown.
UniProt P61201: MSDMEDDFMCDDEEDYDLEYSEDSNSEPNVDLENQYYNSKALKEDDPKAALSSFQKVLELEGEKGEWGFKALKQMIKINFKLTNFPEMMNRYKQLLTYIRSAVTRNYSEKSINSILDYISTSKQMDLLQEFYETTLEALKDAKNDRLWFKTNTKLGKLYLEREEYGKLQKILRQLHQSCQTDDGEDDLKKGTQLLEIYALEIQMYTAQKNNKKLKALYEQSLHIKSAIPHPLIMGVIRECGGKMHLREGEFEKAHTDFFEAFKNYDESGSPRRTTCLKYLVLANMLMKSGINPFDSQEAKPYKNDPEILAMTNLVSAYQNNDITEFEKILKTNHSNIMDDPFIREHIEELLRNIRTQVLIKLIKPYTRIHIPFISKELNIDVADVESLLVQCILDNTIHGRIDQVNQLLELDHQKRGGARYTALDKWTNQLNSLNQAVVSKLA
UniProt Q9UBF6: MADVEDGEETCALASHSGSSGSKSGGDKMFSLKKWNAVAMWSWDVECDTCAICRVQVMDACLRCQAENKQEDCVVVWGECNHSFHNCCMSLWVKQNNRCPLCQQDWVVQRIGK
UniProt Q93034: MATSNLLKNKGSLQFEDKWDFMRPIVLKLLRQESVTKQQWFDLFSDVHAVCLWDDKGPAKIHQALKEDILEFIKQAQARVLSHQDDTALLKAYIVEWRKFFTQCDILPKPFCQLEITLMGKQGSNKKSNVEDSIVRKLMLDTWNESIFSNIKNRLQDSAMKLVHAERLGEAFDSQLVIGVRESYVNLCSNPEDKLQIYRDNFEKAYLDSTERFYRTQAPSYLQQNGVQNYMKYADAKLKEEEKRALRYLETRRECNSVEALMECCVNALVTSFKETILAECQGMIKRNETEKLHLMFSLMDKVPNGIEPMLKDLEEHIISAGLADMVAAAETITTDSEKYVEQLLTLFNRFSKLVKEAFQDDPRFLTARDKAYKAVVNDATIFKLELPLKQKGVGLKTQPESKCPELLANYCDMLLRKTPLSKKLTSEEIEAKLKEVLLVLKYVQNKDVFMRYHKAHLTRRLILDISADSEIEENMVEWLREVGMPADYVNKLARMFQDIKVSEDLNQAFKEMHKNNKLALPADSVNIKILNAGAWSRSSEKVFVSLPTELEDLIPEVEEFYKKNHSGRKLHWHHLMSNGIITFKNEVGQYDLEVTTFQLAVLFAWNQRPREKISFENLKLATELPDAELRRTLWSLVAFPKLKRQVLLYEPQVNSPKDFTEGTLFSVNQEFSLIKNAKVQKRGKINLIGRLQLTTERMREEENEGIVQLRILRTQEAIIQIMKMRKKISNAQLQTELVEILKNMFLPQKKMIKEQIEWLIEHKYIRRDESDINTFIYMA
UniProt Q92466: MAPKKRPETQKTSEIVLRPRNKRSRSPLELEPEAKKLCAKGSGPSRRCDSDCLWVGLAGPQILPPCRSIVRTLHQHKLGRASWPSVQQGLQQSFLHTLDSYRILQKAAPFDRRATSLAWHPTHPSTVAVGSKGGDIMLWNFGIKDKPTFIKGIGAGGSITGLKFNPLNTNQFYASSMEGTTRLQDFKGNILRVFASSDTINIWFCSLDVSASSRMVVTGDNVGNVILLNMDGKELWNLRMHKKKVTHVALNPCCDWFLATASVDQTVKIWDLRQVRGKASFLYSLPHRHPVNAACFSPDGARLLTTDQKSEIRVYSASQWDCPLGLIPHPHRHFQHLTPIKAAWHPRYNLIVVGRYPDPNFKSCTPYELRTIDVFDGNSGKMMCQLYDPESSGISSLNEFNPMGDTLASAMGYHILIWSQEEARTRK

One experiment has as its target HBTH-tagged CSN2 (human) (UniProt P61201). Briefly: pull-down; streptavidin purification of HBTH-CSN2 complexes from cells with or without CSN5i-3, after in-cell formaldehyde cross-linking; immunoblotting. For orientation: Immunoblotting shows a protein as a band on a membrane.
Experiment [1] deals with RBX2 (chain of N8~CRL5) (human) (UniProt Q9UBF6). Nature of the experiment: cryo-EM structure; N8~CRLs (CRL1, CRL2, CRL3, CRL4A, CRL5) mixed with CSN^DM at a 3:1 ratio, 30 min on ice; no compound; both purified.
Experiment [2] concerns the target CUL5, neddylated (chain of N8~CRL5) (UniProt Q93034). Described as above.

These are yes or no findings as the source states them, for the method shown. For some assays here: Binding seen in cells or lysates may run through a third protein. Some entries that bind do so weakly or less than the wild type.

As to “DDB2, endogenous (from UniProt Q92466 1-427)”, the binding entry with HBTH-tagged CSN2 (human) is on record as “binds”.
For the substance “CSN2, subunit of CSN (from UniProt P61201 1-443)”, in experiment [1], the binding entry is reported as “binds”.
For the substance “RBX2 (chain of N8~CRL5) (from UniProt Q9UBF6 1-113)”, the binding result in experiment [2] was “binds”.
The same measure, in the same setting: next, “CSN5^DM (CSN5 E76A/D151N), subunit of CSN^DM (from UniProt Q92905 1-334) (enzyme)”: “binds”.
Take “CSN4, subunit of CSN (from UniProt Q9BT78 1-406)”: in experiment [1], the binding result is reported as “binds”.
